PubChem BioAssay AID686938 – Drosophila RNAi Screening Center | 2013
In all, the deposit lists about 23,000 reagents; this is a random part of those that have a named target and a result. Over the whole deposit, 75 (0.33%) were called active. 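Raw plate signals without normalisation; calls rest on plate z-scores that were not deposited; ratio present for only 364 wells.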 Entries without a mark were called inactive. The numbers tell different reagents against one gene apart. Not given: the dose of the treatment.

- Screen: 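Looking for CRAC channel components and the factors controlling them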 (primary screen)
- Cell system: Drosophila S2R+ cells
- Reagent: long dsRNA against Drosophila genes, about 0.25 µg dsRNA per well, roughly 10,000 cells
- Duration: 5 days of knock-down before the calcium assay
- Challenge: thapsigargin (SERCA pump blocker) to empty calcium stores; entry signal taken 4 min after adding it
- Measurement: 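Per-well fluo-4 fluorescence in two replicates, unnormalised, measured in resting cells and 4 min after store depletion by the SERCA blocker thapsigargin; ratio of the two present in few wells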
- Scale: calcium entry signal: higher = stronger calcium signal after store depletion; resting calcium signal: higher = higher resting calcium signal
- Active means: 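Called when the plate z-score of the entry-to-rest ratio, mean of duplicates, falls below −3; wells with low overall dye signal (Fmax z below −2) or more than five off-targets excluded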
- Meaning of the calls: active = strongly reduced calcium entry; inactive = no strong reduction

| calcium entry signal, replicate 1 (fluorescence units) | calcium entry signal, replicate 2 (fluorescence units) | resting calcium signal, replicate 1 (fluorescence units) | resting calcium signal, replicate 2 (fluorescence units) | target gene | dsRNA no. |
| --- | --- | --- | --- | --- | --- |
| 3.76e7 | 3.98e7 | 1.66e7 | 1.87e7 | hang (hangover) | 1 |
| 1.88e7 | 1.86e7 | 1.00e7 | 9.10e6 | hang (hangover) | 2 |
| 3.58e7 | 3.56e7 | 1.67e7 | 1.58e7 | hang (hangover) | 3 |
| 3.23e7 | 2.51e7 | 1.65e7 | 1.29e7 | CG7362 | 1 |
| 2.74e7 | 3.08e7 | 1.34e7 | 1.36e7 | Arfrp1 (ADP-ribosylation factor related protein 1) | 1 |
| 4.16e7 | 5.28e7 | 1.87e7 | 6.43e7 | CG4210 | 1 |
| 2.03e7 | 3.23e7 | 1.20e7 | 1.48e7 | squ (squash) | 1 |
| 2.79e7 (active) | 2.72e7 | 1.72e7 | 1.87e7 | APC4 (Anaphase Promoting Complex subunit 4) | 1 |
| 3.76e7 | 4.15e7 | 1.90e7 | 1.74e7 | PH4alphaSG1 (prolyl-4-hydroxylase-alpha SG1) | 1 |
| 3.39e7 | 4.59e7 | 1.68e7 | 1.97e7 | Cyp9f2 (Cytochrome P450 9f2) | 1 |
| 2.73e7 | 3.84e7 | 1.27e7 | 1.77e7 | sa (spermatocyte arrest) | 1 |
| 4.06e7 | 3.60e7 | 1.94e7 | 1.83e7 | CG34386 | 1 |
| 3.93e7 | 3.54e7 | 1.70e7 | 1.70e7 | CG34386 | 2 |
| 3.83e7 | 3.28e7 | 2.02e7 | 1.52e7 | CG34386 | 3 |
| 3.96e7 | 4.93e7 | 1.93e7 | 2.25e7 | tai (taiman) | 1 |
| 3.37e7 | 5.17e7 | 1.71e7 | 2.32e7 | tai (taiman) | 2 |
| 3.17e7 | 3.31e7 | 1.63e7 | 1.80e7 | PolD2 (DNA polymerase delta subunit 2) | 1 |
| 2.16e7 (active) | 1.78e7 | 1.32e7 | 1.13e7 | SmE (Small ribonucleoprotein particle protein SmE) | 1 |
| 3.50e7 | 3.82e7 | 1.56e7 | 1.67e7 | CG17754 | 1 |
| 2.76e7 | 3.38e7 | 1.38e7 | 1.67e7 | Caf1-55 (Chromatin assembly factor 1, p55 subunit) | 1 |
| 4.39e7 | 3.59e7 | 2.12e7 | 1.73e7 | RacGAP84C (Rac GTPase activating protein at 84C) | 1 |
| 2.66e7 | 2.73e7 | 1.23e7 | 1.32e7 | Mlc-c (Myosin light chain cytoplasmic) | 1 |
| 4.23e7 | 3.20e7 | 2.40e7 | 1.63e7 | ND2 (retired record) | 1 |
| 2.66e7 | 4.84e7 | 1.42e7 | 2.08e7 | Trx2 (Thioredoxin 2) | 1 |
| 3.76e7 | 3.05e7 | 2.05e7 | 1.64e7 | Nepl19 (Neprilysin-like 19) | 1 |
| 3.52e7 | 6.13e7 | 1.79e7 | 2.53e7 | CG4730 | 1 |
| 2.93e7 | 2.28e7 | 1.45e7 | 1.14e7 | CSN1a (COP9 signalosome subunit 1a) | 1 |
| 4.15e7 | 4.50e7 | 1.98e7 | 1.78e7 | CG11313 | 1 |
| 4.95e7 | – | 2.36e7 | – | CG33120 | 1 |
| 5.47e7 | – | 2.79e7 | – | Acn (Acinus) | 1 |
| 2.74e7 | 3.50e7 | 1.27e7 | 1.56e7 | DCAF12 (DDB1 and CUL4 associated factor 12) | 1 |
| 2.38e7 | 4.13e7 | 1.19e7 | 1.68e7 | CG10338 | 1 |
| 3.26e7 | 3.60e7 | 1.60e7 | 1.58e7 | CG13998 | 1 |
| 2.45e7 | 3.69e7 | 1.35e7 | 1.77e7 | CG31643 | 1 |
| 2.12e7 | 2.88e7 | 1.75e7 | 2.01e7 | zetaCOP (Coat Protein (coatomer) zeta) | 1 |
| 3.47e7 | 5.26e7 | 1.59e7 | 2.18e7 | trc (tricornered) | 1 |
| 3.27e7 | 3.22e7 | 1.62e7 | 1.52e7 | Rpn13R (Regulatory particle non-ATPase 13-related) | 1 |
| 3.32e7 | 3.30e7 | 1.65e7 | 1.66e7 | krimp (krimper) | 1 |
| 4.75e7 | 4.19e7 | 2.39e7 | 2.00e7 | Srp72 (Signal recognition particle 72) | 1 |
| 5.00e7 | 5.95e7 | 2.48e7 | 2.47e7 | CG34225 | 1 |

Just “calcium entry signal, replicate 1 (fluorescence units)”, for 5 of the entries above:
Nepl19 (Neprilysin-like 19): 3.76e7
CG4730: 3.52e7
CSN1a (COP9 signalosome subunit 1a): 2.93e7
CG11313: 4.15e7
CG33120: 4.95e7
